The nature of the assay: qHTS Assay for Lipid Storage Modulators in Drosophila S3 Cells.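 As to cell number change: cells counted by Cell Tracker Red CMTPX staining in the red channel.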 The note with it: BODIPY lipid droplet fluorescence, 18-24 h; for cell number change: measured here: cell count max response, cells fed with added oleic acid. A digest of the protocol:
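Drosophila S3 cells got compounds at several concentrations plus oleic acid (400 uM solution). Laser-scanning cytometry with 488 nm excitation read lipid droplets at 500-530 nm and cells at 575-640 nm. Percent activity was relative to 20 uM Triacsin C.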
In general terms: qHTS replaces the single test concentration by a dilution series.

Where [1] appears, read: measured here: lipid fluorescence (Fed channel) AC50, cells fed with added oleic acid.
Where [2] appears, read: measured here: cell number channel AC50, cells fed with added oleic acid.

Experimental findings from PubChem BioAssay AID2685 (National Center for Advancing Translational Sciences (NCATS), 2010) are described below.

This is one part of the list. These are further read-outs of the screen, such as a control signal, another cell line or another target. No call is given for them. Most of these compounds were active or inconclusive in the main read-out, so they are no random draw. The note in brackets gives the kind of curve behind each potency; many fits are weak.

`CS(=O)(=O)c1ccc(C(=O)N2CCN(C(=O)c3ccco3)CC2)cc1`: the cell number change was -10.7%. Further, the half-maximal activity concentration (AC50) (as a rule, the concentration giving half of the maximal activity seen) under setting [1] was 0.00517 µM [rising, full curve, poor fit].

In the case of `Cc1ccc(N=Cc2c(O)ccc3ccccc23)cc1F`, the cell number change was -26.7%. Further, the half-maximal activity concentration (AC50) under setting [1] is 0.00517 µM [falling, full curve, poor fit].

With `Cc1ccc(CN2CCN(Cc3ccccc3)C(CCO)C2)s1` (configuration not stated), the cell number change was -34.7%. Further, the AC50 under setting [2] is 0.0116 µM [falling, full curve, poor fit]. Also, the AC50 under setting [1] was 0.259 µM [falling, full curve, poor fit].

`COc1ccc(Br)cc1C(=O)Nc1ccc(N2CCN(S(C)(=O)=O)CC2)cc1`: the AC50 reads like this: under setting [2], 2.91 µM [rising, partial curve]; under setting [1], 2.31 µM [rising, partial curve].

For `CC1CC1C(=O)OCC(=O)NNC(=O)COc1ccc(Br)cc1` (configuration not stated), the cell number change was -50.6%. The half-maximal activity concentration (AC50) under setting [2] was 16.4 µM [falling, single point].

Turning to `O=C(NCCc1csc(-c2cccnc2)n1)c1cccc2ccccc12`, the cell number change came out at 22.8%. Also, the AC50 under setting [2] was 0.164 µM [rising, full curve, poor fit]. In addition, the AC50 under setting [1] is 0.13 µM [rising, full curve, poor fit].

For the compound `CC(=O)Nc1c(Nc2ccccc2)c2ccccc2oc1=O`, the cell number change is 8.96%. The half-maximal activity concentration (AC50) under setting [1] was 9.2 µM [rising, partial curve, poor fit].

Turning to `CCOc1ccc(S(=O)(=O)N2CCOCC2)cc1NC(=O)C1CCC1`, the cell number change amounted to 6.16%. Moreover, the AC50 under setting [1] was 0.00517 µM [rising, full curve, poor fit].

Regarding `C=CCn1c(=O)c(C(=O)NCCc2ccccc2)c(O)c2ccccc21`, the cell number change is -0.0718%. Further, the concentration at half-maximal activity (AC50) under setting [1] is 1.16 µM [rising, partial curve].

For `O=C1CCC(=O)N1CCc1c[nH]c2ccccc12`, the cell number change turned out to be 4.27%. Further, the half-maximal activity concentration (AC50) under setting [1] was 0.082 µM [falling, full curve].

For `Cn1nc(C(F)(F)F)c2cc(NC(=O)OCc3ccc(F)cc3)sc21`, the cell number change is -29.6%. Moreover, the AC50 under setting [1] is 29.1 µM [falling, single point].

Regarding `COc1cccc(-n2c(SCC(=O)Nc3cc(C)on3)nc3c([nH]c4ccccc43)c2=O)c1`, the cell number change came to 13.4%. Also, the AC50 under setting [1] is 0.0651 µM [rising, full curve, poor fit].

Consider `Cc1ccccc1OCCn1c(CCNC(=O)C(C)C)nc2ccccc21`, for which the cell number change was -3.62%. Further, the AC50 under setting [1] is 0.461 µM [rising, partial curve].

Consider `Cc1ccccc1N(C(=O)CNC(=O)c1ccco1)C(C(=O)NC1CCCCC1)c1ccncc1` (configuration not stated), for which the cell number change was found to be 6.52%.

Consider `CC(=O)Nc1cccc(C(=O)OCC(=O)c2ccc3c(c2)OCO3)c1`, for which the AC50 under setting [2] was 3.26 µM [rising, single point].

For the compound `O=C(c1cc(S(=O)(=O)N2CCOCC2)ccc1Cl)N1CCN(c2ccccn2)CC1`, the concentration at half-maximal activity (AC50) is 0.146 µM [rising, single point] under setting [2] and 0.103 µM [rising, partial curve, poor fit] under setting [1].

As to `COc1ccc(C(=O)COC(=O)c2cnc(C)cn2)cc1OC`, the cell number change is -0.968%. Further, the concentration at half-maximal activity (AC50) under setting [1] is 2.06 µM [rising, full curve].

Consider `COc1ccc(N(C(=O)C2CCCCC2)C2C=CS(=O)(=O)C2)c(OC)c1` (configuration not stated), for which the AC50 was 6.51 µM [rising, single point] under setting [2] and 6.51 µM [rising, single point] under setting [1].

Consider `Cc1cc([N+](=O)[O-])ccc1-c1ccc(/C=N/NC(=O)Cc2ccccc2)o1`, for which the cell number change is -15.6%. The AC50 under setting [1] was 20.6 µM [falling, single point].

`COc1cc(C(=O)N2CCN(C(=O)Cc3ccccc3)CC2)cc(OC)c1OC`: the cell number change came to 10%. Under setting [1], the AC50 is 29.1 µM [rising, single point].

Take `COc1ccc(NC(=S)SC)cc1OC`: the cell number change is 17.9%. Besides, the AC50 under setting [2] was 0.517 µM [rising, partial curve, poor fit]. For the same compound, the AC50 under setting [1] is 0.58 µM [rising, single point].

As to `Cc1ccc(S(=O)(=O)N2CCC(=O)N(CCOC(=O)Nc3cc(C)cc(C)c3)CC2)cc1`, the cell number change stood at 23.5%. Besides, the half-maximal activity concentration (AC50) under setting [1] is 9.2 µM [rising, partial curve].

In the case of `COc1ccc(OC)c(/C=N/NC(=O)CC(=O)NC2CCCCC2)c1`, the cell number change is -27%. Besides, under setting [1], the AC50 was 6.51 µM [rising, single point].

Regarding `CC(C)C[C@H](NC(=O)[C@@H]1O[C@H]1C(=O)O)C(=O)NCCCCN=C(N)N`, the cell number change was -15.7%. In addition, the half-maximal activity concentration (AC50) under setting [1] is 0.651 µM [falling, full curve, poor fit].

Regarding `COc1cccc(-c2c(-c3cc(OC)cc(OC)c3)n(C)c3ccc(-c4cccc5[nH]ccc45)cc23)c1`, the cell number change amounted to 7.89%.

Turning to `CCOC(=O)CSc1nc2c(c(-c3ccc(C)o3)c1C#N)CCCC2`, the cell number change is -21.2%. The AC50 under setting [1] was 4.11 µM [falling, full curve, poor fit].

Regarding `CCCC(=O)Nc1nnc(CCc2ccccc2)s1`, the cell number change turned out to be 4.93%. Besides, the half-maximal activity concentration (AC50) under setting [1] is 2.06 µM [rising, partial curve, poor fit].

Regarding `Cc1nc(N2CCN(C(=O)c3ccco3)CC2)nc2c1C(=O)CCC2`, the cell number change is -4.86%. Further, under setting [1], the concentration at half-maximal activity (AC50) was 4.61 µM [falling, single point].

For the compound `CC1CCN(c2ccc(N3C(=O)C4CCCCC4C3=O)cc2[N+](=O)[O-])CC1` (configuration not stated), the cell number change is -24.6%. Under setting [1], the concentration at half-maximal activity (AC50) is 0.731 µM [falling, full curve].

Regarding `Cc1ccc(S(=O)(=O)N(C)C)cc1NC(=O)CN1CCCC1`, the cell number change is -3.85%. Also, the AC50 under setting [1] was 0.461 µM [falling, partial curve].

In the case of `Nc1nc(CC(=O)CSc2ccc(Cl)cc2)nc(Nc2ccc(F)cc2)n1`, the cell number change was -11.8%. The AC50 under setting [2] is 2.91 µM [falling, single point]. In addition, the AC50 under setting [1] is 6.51 µM [falling, single point].

As to `C=CCNC(=O)C1CCN(S(=O)(=O)c2ccccc2)CC1`, the cell number change is -82.7%. Also, under setting [2], the AC50 was 23.1 µM [falling, single point].

For `CCOc1cc(/C=N/NC(=O)C2CC2)ccc1OC(C)C`, the cell number change came to 10.1%. Further, under setting [2], the AC50 is 0.82 µM [rising, single point]. Further, the concentration at half-maximal activity (AC50) under setting [1] was 0.731 µM [rising, single point].

Take `COCCNC(=O)CSC1=N/C(=C/c2ccc(Cl)c(Cl)c2)C(=O)N1c1ccccc1F`: the cell number change was -21.1%. Further, the AC50 under setting [1] is 29.1 µM [falling, single point].

As for `Cc1cc(C)n(-c2cc(N3CCN(S(=O)(=O)c4ccc(Br)cc4)CC3)ccc2[N+](=O)[O-])n1`, the half-maximal activity concentration (AC50) under setting [2] was 6.51 µM [rising, single point].

As to `Cc1cccc(NS(=O)(=O)c2cc(C(=O)N3CCN(C)CC3)ccc2C)c1`, the cell number change was 5.95%.
